Reference: PubChem BioAssay AID1224830 (NIAID, 2016)

- Aim: 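Regulators of TLR4 signalling towards TNF-alpha in macrophage-like cells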 (primary screen)
- Cells: human THP-1 monocytic leukaemia cells, TNF dual-luciferase reporter clone, PMA-differentiated to macrophage-like cells
- Reagent: siRNA pool against human genes, 50 nM
- Duration: LPS for 4 h, given about 3 days after siRNA transfection
- Conditions: bacterial LPS (TLR4 ligand), 10 ng/ml
- Measurement: 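TNF firefly reporter luminescence divided by renilla, normalised to the plate median, then turned into a robust z-score for each replicate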
- Reading the numbers: TNF reporter robust z-score: higher = stronger TNF reporter response to LPS
- Rule for the call: 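Each well counts as active if its z-score is over 2.8 or under -1.5; controls are left without a call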
Here is an unselected part of about 18,000 reagents. Of all reagents, about 2,900 (16%) are marked active. 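Calls are made per well; low scores hint the gene aids the LPS response, high scores that it dampens it.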 Entries without a mark were called inactive. Repeated entries: four replicate wells of each siRNA pool. No sequences are given here.

The opening 7 entries, to show the layout:
gene | TNF reporter robust z-score
CDC50B (GeneID 161291) | -0.84
CDC50B (GeneID 161291) | -0.27
CDC50B (GeneID 161291) | 0.08
CDC50B (GeneID 161291) | 0.44
LIN7A (GeneID 8825) | 3.16 (active)
LIN7A (GeneID 8825) | 4.07 (active)
LIN7A (GeneID 8825) | 0.64

The list itself, repeating the preview:
gene | TNF reporter robust z-score
CDC50B (GeneID 161291) | -0.84
CDC50B (GeneID 161291) | -0.27
CDC50B (GeneID 161291) | 0.08
CDC50B (GeneID 161291) | 0.44
LIN7A (GeneID 8825) | 3.16 (active)
LIN7A (GeneID 8825) | 4.07 (active)
LIN7A (GeneID 8825) | 0.64
LIN7A (GeneID 8825) | 1.6
KCTD7 (GeneID 154881) | -0.91
KCTD7 (GeneID 154881) | -0.67
KCTD7 (GeneID 154881) | -0.6
LITAF (GeneID 9516) | -2.13 (active)
LITAF (GeneID 9516) | -1.75 (active)
LITAF (GeneID 9516) | -1.58 (active)
LITAF (GeneID 9516) | -0.96
PRSS48 (GeneID 345062) | 2.55
PRSS48 (GeneID 345062) | -0.17
PRSS48 (GeneID 345062) | 1.34
PRSS48 (GeneID 345062) | 3.03 (active)
AGO2 (GeneID 27161) | 0.88
AGO2 (GeneID 27161) | 0.82
AGO2 (GeneID 27161) | 0.57
AGO2 (GeneID 27161) | 1.16
MOB3B (GeneID 79817) | 0.55
MOB3B (GeneID 79817) | 0.3
MOB3B (GeneID 79817) | 1.19
MOB3B (GeneID 79817) | -0.26
FAHD2B (GeneID 151313) | -0.98
FAHD2B (GeneID 151313) | -0.96
FAHD2B (GeneID 151313) | -0.87
FAHD2B (GeneID 151313) | -0.88
KIF27 (GeneID 55582) | 0.57
KIF27 (GeneID 55582) | -0.12
KIF27 (GeneID 55582) | -0.34
KIF27 (GeneID 55582) | -1.99 (active)
HIRIP3 (GeneID 8479) | -0.6
HIRIP3 (GeneID 8479) | 1.07
HIRIP3 (GeneID 8479) | 0.26
HIRIP3 (GeneID 8479) | 0.16
THOC6 (GeneID 79228) | -0.36
THOC6 (GeneID 79228) | -0.34
THOC6 (GeneID 79228) | 0.21
THOC6 (GeneID 79228) | 0.42
DDTL (GeneID 100037417) | 1.44
DDTL (GeneID 100037417) | -0.22
DDTL (GeneID 100037417) | -0.07
DDTL (GeneID 100037417) | 0.89
KIF3A (GeneID 11127) | 0.72
KIF3A (GeneID 11127) | 1.74
KIF3A (GeneID 11127) | 1.14
KIF3A (GeneID 11127) | 0.86
NPVF (GeneID 64111) | 1.36
NPVF (GeneID 64111) | 0.91
NPVF (GeneID 64111) | 0.48
NPVF (GeneID 64111) | 1.99
ETNK2 (GeneID 55224) | -1.55 (active)
ETNK2 (GeneID 55224) | -1.36
ETNK2 (GeneID 55224) | -1.3
ETNK2 (GeneID 55224) | -0.74
TMEM9B (GeneID 56674) | -0.64
TMEM9B (GeneID 56674) | -0.56
TMEM9B (GeneID 56674) | -1.06
TMEM9B (GeneID 56674) | 0.33
CBX7 (GeneID 23492) | 0.5
CBX7 (GeneID 23492) | 0.76
CBX7 (GeneID 23492) | 0.11
CBX7 (GeneID 23492) | 1.53
ABTB1 (GeneID 80325) | -0.47
ABTB1 (GeneID 80325) | 0.38
ABTB1 (GeneID 80325) | 1.35
ABTB1 (GeneID 80325) | 1.73
KCNU1 (GeneID 157855) | -1.53 (active)
KCNU1 (GeneID 157855) | -0.65
KCNU1 (GeneID 157855) | 0.08
KCNU1 (GeneID 157855) | -0.4
DBF4B (GeneID 80174) | -1.31
DBF4B (GeneID 80174) | -0.35
DBF4B (GeneID 80174) | -0.2
DBF4B (GeneID 80174) | 0.01
ZNF347 (GeneID 84671) | -0.11
ZNF347 (GeneID 84671) | -0.64
ZNF347 (GeneID 84671) | -0.32
ZNF347 (GeneID 84671) | -0.66
OR2A2 (GeneID 442361) | -0.38
OR2A2 (GeneID 442361) | 0.43
OR2A2 (GeneID 442361) | 0.23
OR2A2 (GeneID 442361) | 0.71
HMGXB4 (GeneID 10042) | -0.68
HMGXB4 (GeneID 10042) | -0.15
HMGXB4 (GeneID 10042) | -0.09
HMGXB4 (GeneID 10042) | 0.37
RPS3 (GeneID 6188) | 1.81
RPS3 (GeneID 6188) | 0.86
RPS3 (GeneID 6188) | 0.84
RPS3 (GeneID 6188) | 3.6 (active)
TMCO6 (GeneID 55374) | 0.75
TMCO6 (GeneID 55374) | 0.52
TMCO6 (GeneID 55374) | 0.39
TMCO6 (GeneID 55374) | 1.2
H2AZ1 (GeneID 3015) | 1.59
H2AZ1 (GeneID 3015) | 1.73
H2AZ1 (GeneID 3015) | 0.78
H2AZ1 (GeneID 3015) | 0.35
SHROOM2 (GeneID 357) | 0.75
SHROOM2 (GeneID 357) | 0.92
SHROOM2 (GeneID 357) | -1.16
SHROOM2 (GeneID 357) | 0.7
UBE2N (GeneID 7334) | 0.28
UBE2N (GeneID 7334) | -0.29
UBE2N (GeneID 7334) | -0.39
UBE2N (GeneID 7334) | 0.18
